The values that follow come from PMC10701690, “Structural characterization of human de novo protein NCYM and its complex with a newly identified DNA aptamer using atomic force microscopy and small-angle X-ray scattering”.

By UniProt entry, the sequences of proteins in these tests, tags left out.
UniProt P49841: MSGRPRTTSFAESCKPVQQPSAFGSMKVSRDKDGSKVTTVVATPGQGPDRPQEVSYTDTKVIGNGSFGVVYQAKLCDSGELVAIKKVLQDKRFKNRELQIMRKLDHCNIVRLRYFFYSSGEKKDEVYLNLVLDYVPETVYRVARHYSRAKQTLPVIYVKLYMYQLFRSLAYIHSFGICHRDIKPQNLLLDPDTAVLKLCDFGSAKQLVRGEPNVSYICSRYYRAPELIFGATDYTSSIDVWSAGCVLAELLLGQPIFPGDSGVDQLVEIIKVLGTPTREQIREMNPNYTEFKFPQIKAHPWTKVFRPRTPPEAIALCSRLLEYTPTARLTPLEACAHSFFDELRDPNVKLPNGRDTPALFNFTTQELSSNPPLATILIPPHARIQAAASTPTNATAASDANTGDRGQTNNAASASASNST

No constants are given. Whether binding was seen depends on the method and setting. Some entries that bind do so weakly or less than the wild type.

This assay has as its target GSK3β (purified, Signal Chem) (UniProt P49841). The experiment in a line: co-IP; purified GSK3β (3.7 pmol) and NCYM (3.7 pmol) mixed in ice-cold PBS, 4°C 2 h, without or with DNA aptamer No.1 (1 or 5 eq); precipitated with anti-GSK3β on protein G Dynabeads; detected by Abby capillary immunoassay; both purified.

B1: NCYM (purified, as used for immunoprecipitation) (protein, UniProt P40205 1-109)
chain: MQHPPCEPGNCLSLKEKKITEGSGGVCWGGETDASNPAPALTACCAAEREANVEQGLAGRLLLCNYERRVVRRCKIAGRGRAPLGTRPLDVSSFKLKEEGRPPCLKINK
Take B1: the binding entry was “binds”.
